# US9233318 (dated 2016)
# Experiment: peptide synthesis
# Conditions: acetate; for crude HPLC purity: late stage modification step; for final purity (method not given): purification step, HPLC
substance,measurement,setting,value
caspofungin acetate,crude HPLC purity,run 1,78.64%
same,crude HPLC purity,run 2,47.09%
same,final purity (method not given),run 1,99.85%
same,final purity (method not given),run 2,99.88%
same,final purity (method not given),run 3,99.81%
same,final purity (method not given),run 4,99.46%
same,final purity (method not given),run 5,99.88%
same,final purity (method not given),run 6,99.90%
same,final purity (method not given),run 7,99.71%
same,final purity (method not given),run 8,99.61%
same,final purity (method not given),run 9,99.01%
same,final purity (method not given),run 10,99.71%
